According to doi:10.1101/2025.08.01.668090:
No constants are given. Whether binding was seen depends on the method and setting. Some binding calls cover weakened binding; strength is not graded here.

Amino acid sequences for entries named in this document (tags omitted). Residues count along the entry.
UniProt O75381, residues 19-84: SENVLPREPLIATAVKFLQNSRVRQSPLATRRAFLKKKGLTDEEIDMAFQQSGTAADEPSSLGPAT

Target: N-terminal domain of H. sapiens PEX14 (residues 19-84) (H. sapiens) (UniProt O75381)
Assay: AlphaScreen or HTRF

binding: binds
Binder: ALSENWAQEFLA (biotinylated (position not given)) [biotinylated PEX5-derived peptide (…)]
